# According to PubChem BioAssay AID1508600 (Functional Genomics Laboratory (NCATS/FGL), 2020):
# About 3,700 (7%) of roughly 53,000 sequences were called active.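 How the source made its calls: active means gene knockdowns whose robust z-score for IL-1 alpha signal is at least 2 or at most -2, so actives lie on both sides; inactive means the rest.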 Some of the results follow.
# Experiment: Components of the Cytosolic LPS Sensing Pathway: Gene Identification via Genome-wide siRNA Screen;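 further: robust z of the log signal after scaling to non-targeting control siRNA wells of the plate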
# Details: RAW264.7 macrophages, IL-1a HTRF, actives lie on both sides, screened at 100 nM (by protocol), cells primed 5 h with Pam3CSK4 first
# In short: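 RAW264.7 mouse macrophages reverse-transfected with single siRNAs (100 nM final) for 48h, primed with Pam3CSK4 for 5 hours, then transfected with LipidA for 24 hour. Supernatant IL-1a read by HTRF; values normalized to negative-control median, log-transformed robust z-scores.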
row,Sequence,z-score
1,CGUGGUCAGCGAGAGAGAATT against Sohlh1,inactive: 1.19
2,GGGCUAUUAAAUGAUUUCATT against Pax1,active: 5
3,GGAAGAAGAAAGAUCCAACTT against Trpt1,inactive: 1.17
4,GGAAAACUAUCUCCUUUUGTT against Olfr716,inactive: 0.355
5,GGACUCUUUGACCACAAGCTT against Gins3,inactive: 0.424
6,CCUUUAGCCAGACCAUUGCTT against U2af1,inactive: 0.418
7,GGUUGACCUUUAAGUUAAGTT against Tgfa,inactive: -0.201
8,CCUUCUCAAGUUCGACGUGTT against Mafb,inactive: 1.02
9,GCCUGCACUUGCUAAGUUGTT against Pla2g5,inactive: -0.64
10,GAGUCCUUGGUACUUUUCCTT against Olfr166,inactive: -0.0227
11,GUGUAGCUAGGAUUGUCAATT against Apol9b,inactive: 0.0986
12,CCCAGAACAUCACAUGGGUTT against Olfr464,inactive: -1.4
13,GGUGAGAACCGAGUUCCUGTT against Dip2c,inactive: 0.674
14,GCGAUGAUGUGCUUAUGUCTT against Zfp341,inactive: 0.735
15,GCAAGAUUUUGACCAAAUGTT against Slc30a9,inactive: 0.721
16,CCAGCAAGAUAAUGGUAUCTT against Grin2a,inactive: -0.0219
17,GCCACGAAGACUAUAUAAGTT against Blvra,inactive: -0.829
18,CCUGAACGUGAGUGGAGAATT against Man1c1,inactive: -0.8
19,GCCUAUGCUUAAUUAGCAUTT against Farp1,inactive: -1.27
20,GGUCUUUAGCAAAUUGUUCTT against Lrrc6,active: 2.02
21,CGGCAUCCAGUCUCAGAUGTT against Coch,inactive: 1.88
22,CCUAGAGAUUGGUAUGUACTT against Tmem132e,active: -2.1

row,Sequence,z-score
1,GGAGCUUUUGGACAUUUAUTT against Laptm4a,inactive: 0.427
2,GCGUGAAGUCUUUCUGGAGTT against Usp20,inactive: 1.42
3,GGUGGAAGAGGAGAGUGAATT against Ncl,inactive: -0.284
4,GGUGUGUGAAAUCACUCACTT against Oxnad1,inactive: 0.303
5,GGUGACAGAGAUUUUCGAATT against Tbc1d22a,inactive: 0.931
6,GGGCUUUCAUUCUUGUAUCTT against Olfr68,inactive: 0.732
7,GGACUUCUUCUUUAGCAGATT against Ddit4l,inactive: -0.888
8,GGAGAAACAGAAAGGUCACTT against Pmepa1,inactive: 0.266
9,UUGAUUUGGUAGCCUGCUCTT against Olfr1303,inactive: 0.962
10,GGCACAGAUGUUUUGAGAATT against Surf4,inactive: -0.954
11,GGAUUCAAGAGAAAAGAACTT against Nop53,inactive: -0.566
12,GGAGCAAACUUGCUCAGUUTT against Kctd19,inactive: -0.627
13,GCGACUGAUUCCUAUUAAATT against Myd88,inactive: -1.87
14,GGAGGCAGUGUUUUGUCAATT against Fgd4,inactive: -0.912
15,CGCUAUGGAUAUAAACCAUTT against Pla2g12a,inactive: 1.52
16,GGUAACUCCAUUUUAUAGCTT against Adamts12,inactive: 0.137
17,GGAGCAGACUUUAAAAUGATT against Stau1,inactive: -0.626
18,GGGCUGUCGUGAUUUUUGCTT against Grm7,inactive: 0.188
19,GGCUUUUCUAGUUCCUCAATT against Pdzd7,active: -2.01
20,GCCCACAAGGAGUGCAUGATT against Cox17,inactive: -1.37
21,GGAGAUCCUCUUCAACAUGTT against Xkr6,inactive: -0.483
22,GGCUAUGUAGAUCUUGUCATT against Cyb5r1,inactive: -1.09

# A different layout for some results above.
row | Sequence | z-score
6 | GGGCUUUCAUUCUUGUAUCTT against Olfr68 | inactive: 0.732
9 | UUGAUUUGGUAGCCUGCUCTT against Olfr1303 | inactive: 0.962
10 | GGCACAGAUGUUUUGAGAATT against Surf4 | inactive: -0.954
15 | CGCUAUGGAUAUAAACCAUTT against Pla2g12a | inactive: 1.52

# The list continues.

row,Sequence,z-score
1,GCAAGUAUGAGUGUCCCAUTT against Traf6,inactive: -1.01
2,CCGAUUGAAUUACUCAGCATT against Bcas2,inactive: 0.226
3,GCUACUGGUUGGGUUGAAGTT against Tbcd,inactive: 1.47
4,GGACAAAAACAAAUGUGAGTT against 4933417A18Rik,active: -2.43
5,CGGAUGAUGUAUUUAAAGATT against Ftcd,inactive: 0.366
6,GGUGAAGAAGGAGACAAAGTT against Tmem43,inactive: 0.347
7,GGUAAUUAAUUCAAAGCAGTT against St8sia4,inactive: -0.851
8,GGUGUUUCCGUUGUAAAAATT against Tuba1c,inactive: 0.594
9,GCAGAUGCUGGUUUAAACATT against Zfand5,inactive: -0.0514
10,GCCUAUGAACUUAAUGGCCTT against Zfp180,inactive: -0.486
11,CGGUUGACAGGUAUAUCGCTT against Gpr139,inactive: -0.323
12,GCGUGAAUCCAAAUACAGUTT against Tigd3,inactive: 0.412
13,GCACAACUCCUACAUGGUCTT against Mfsd9,inactive: 0.782
14,GGAAGUUUCCAGCAAGACATT against Spn,inactive: -1.2
15,GCGUGUUUGACCGACACGATT against Plekha3,inactive: -0.704
16,CUCUAUGGACUAUAGCUAATT against Tas2r109,inactive: -0.324
17,GCGGGAGACAGAAUACGGUTT against Igfbp3,inactive: 0.171
18,GCUAGUAACAGCAAGCUUCTT against Zfp85os,inactive: 0.856
19,GGAACUUCUACAGUCCUCCTT against Parp16,inactive: 0.193
20,GUUGUUUAUAGCUUAAGGATT against Olfr1450,inactive: -0.577
21,GGACUCGUUGGUCAUGUCUTT against Ulk4,inactive: 0.586
22,GGUUUGUUAGGCAUGAUAATT against Adamts16,inactive: -1.24

row,Sequence,z-score
1,GGUGCUUACUGAUUUUUGUTT against Triap1,inactive: 0.669
2,AUGGUAUACUAUUAUGCUGTT against Mup20,inactive: 1.62
3,GCAGCUGUCAUGUAUACAGTT against Olfr59,inactive: -0.867
4,GGUGGGUGACACUUAAACATT against Vmn1r73,inactive: 0.413
5,GGCUUCUAAUCAGAUCAGCTT against Tmem251,inactive: 0.334
6,CCCAGUGUCAUUCAGUAUUTT against Phactr3,active: 2.13
7,GGACAAAGAAGACUCCCGATT against Dpf2,inactive: -0.402
8,GGGCUAAAGUAUAUCCAUUTT against Mapk1,inactive: -1.35
9,CCUAAACAAGAUGACGACATT against Lonp2,inactive: 1.49
10,GGUUUGGCCUGGAGUGAAATT against Olfr126,inactive: 0.0536
11,GAUAUGUUCGACAACGGCATT against Foxd1,inactive: -0.39
12,CCUAUUCAUGCGUCUGUGGTT against Atp6v0c,inactive: -0.278
13,GCUAAUCCAAUCACUGAUGTT against Zgrf1,inactive: -1.82
14,GGAAAGACAUGUAAUAUGUTT against Sdhaf2,inactive: -0.51
15,GGCCUUGCACUUCAGUUUCTT against Mfsd4b1,inactive: -0.436
16,GGAAUGUCCACAUUUUGUATT against Tigd5,inactive: 1.19
17,GGUCGUUCAGAAGCACCAGTT against Aldh16a1,inactive: -1.31
18,GCCCAUUAAUGGGAUAUAATT against Ccdc134,inactive: 0.148
19,CCACUGACAUUUUUCAAACTT against Tagln3,inactive: -1.23
20,GGUGUUCGAGAAGCUGAAGTT against Haus7,inactive: -0.371
21,CCCGAUUCCCACUUAAAACTT against Pcdhga3,inactive: -0.132
22,GGAGAAAGAAGAGCUAUGATT against Pla2g12b,inactive: -1.78

row,Sequence,z-score
1,GGAUUUCAACUAUUUGUUGTT against Spta1,inactive: -1.04
2,GGACAGCAGCGUGAACUAUTT against Alx1,inactive: 0.254
3,CCCUCACUAUAACACUAUUTT against Six5,inactive: -0.418
4,CGAAGACACGCUACGAAGATT against Minpp1,inactive: -0.161
5,GGCCCUUAAGAGAACUCUUTT against Olfr1046,inactive: -1.77
6,GCUGAUAUGCACAAGAUGGTT against Gps1,inactive: -0.0845
7,GGUACAUUUUAAACAAUGCTT against Nptn,inactive: -0.247
8,CCUAUACAAGUAGGCAAUATT against Cipc,inactive: -0.811
9,GGAGUUUAGAAGGGAGGAATT against Slx4,inactive: 1.05
10,GAAAACCUACCAGUGGGUGTT against Adamtsl5,inactive: -0.784
11,GGAGCGUACCAUGAUCGAUTT against Parvb,active: -2.17
12,GCACUUCCCUCCCUAUGCATT against Cep20,active: -2.11
13,CGGGUAAUAUUCUUUUCAATT against Rex2,inactive: 1.76
14,CCAACAGGCAUAUGCAUAUTT against Ddx5,inactive: 0.364
15,CCUCCUGUGUUACUUGCGUTT against Clcf1,inactive: 0.57
16,GGCAAUUUCACACUAAUCATT against Mtmr14,inactive: -1.24
17,GGCAAAGUGUCCCUCCGAATT against Skint7,active: 2.06
18,GGAACCACUUAUUUAUUUCTT against Gba2,inactive: -0.00998
19,GGCCUCAGCUCACAACAAATT against Sf3b4,inactive: -1.71
